The values below come from PubChem BioAssay AID1458 (National Center for Advancing Translational Sciences (NCATS), 2008).

The campaign covered roughly 210,000 compounds. About 5,900 (2.8%) were called active. Another 5% or so got no clear call; they are omitted. Calls follow the shape of the dose curve; as a rule, active = well fitted activation curve with a large enough effect; inconclusive = small, poorly fitted or top-dose-only effect; inactive = no such curve, though single readings can be large or run the other way. Only a part is listed here, and it is no random draw. Where no call is shown, the source filed none.
Potency is read from the fitted curve at half-maximal effect.

This test in a line: qHTS Assay for Enhancers of SMN2 Splice Variant Expression. Also: nearly all actives have a fitted effect of over 55% in size. As to activity change, positive = activation: % of control where 0% means no effect. Conditions: HEK293 SMN2-luciferase splicing reporter, luminescence, 30-36 h; activity change, positive = activation: at 46.1 µM (top of the series) unless noted. Summed up:
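HEK293 cells carry an SMN2 minigene-luciferase reporter in which exon 7 inclusion puts luciferase in frame. Cells were seeded at 2000 cells/well, attached for 10-12 hours, then exposed to compounds for 30-36 hours at 37C before ONE-Glo luminescence.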
On the technique in general: qHTS replaces the single test concentration by a dilution series.
Consider `Cc1ccc(C(=O)Nc2ccc3c(c2)nc2n3CCSC2)cc1`, for which the activity change, positive = activation came to 80.3%.

For the molecule `Cc1cccc(CSc2nc3c(sc4ccccc43)c(=O)n2CCC(=O)NC(C)C)c1`, the activity change, positive = activation was 56.4%.

Turning to `CCN(CC)c1ccc(C2C3CCCCC3(O)CCN2CC(=O)N2CCCCC2)cc1` (centres undefined), the activity change, positive = activation is 36.7%.

`O=S(=O)(c1cccc(S(=O)(=O)N2CCCC2)c1)c1cccc(S(=O)(=O)N2CCCC2)c1`: the “activity change, positive = activation” value was inactive: -33.2%.

On to `COc1ccc(NC(=O)c2ccc([N+](=O)[O-])s2)c([N+](=O)[O-])c1`, for which the activity change, positive = activation is 53.9%.

Take `O=C1c2ccccc2NC(c2ccc([N+](=O)[O-])cc2)N1O` (centres undefined): the “activity change, positive = activation” value was inactive: -68.1%.

As for `CCOC(=O)c1[nH]c2ccc(OC)cc2c1NC(=O)CN1CCC2(CC1)OCCO2`, the activity change, positive = activation came out at 41.6%.

Take `CC(C)(C)c1csc(NNC(=O)c2ccc(Br)cc2)n1`: the “activity change, positive = activation” value was inactive: -61.5%.

As for `CC1CCC/C(=N\NC(=O)COc2ccccc2Cl)C1` (centres undefined), the activity change, positive = activation is -13.3%.

For the molecule `Cc1[nH]n2c(=O)c3c(nc2c1-c1ccc(Cl)cc1)CCC3`, the activity change, positive = activation is -56.7%.

For the molecule `Cc1csc2ncc(C(=O)Nc3ccccc3F)c(=O)n12`, the Potency is active: 12.6 µM.

With `CC(/C=N/NC(=O)c1nn(C)c(C)c1Br)=C\c1ccccc1`, the activity change, positive = activation worked out at 142%.

Consider `Cc1cccc(CSC2=NN3CCCC(=O)N=C3S2)c1`, for which the activity change, positive = activation was found to be 42.6%.

On to `O=C(Nc1ccc(Sc2ccc(Br)cc2)cc1)c1ccco1`, for which the activity change, positive = activation is -34%.

Regarding `CCOC(=O)CNC(=O)c1ccc(OCC(F)(F)F)cc1`, the Potency was active: 12.6 µM.

For the molecule `COCc1nnc(N)s1`, the activity change, positive = activation came out at 34.1%.

For the molecule `Cc1ccc(-c2nn(-c3ccccc3)cc2CN(Cc2ccccc2)C(=O)c2ccco2)o1`, the “activity change, positive = activation” value was inactive: -35.8%.

`O=C(Nc1ccc(F)cc1)N1CCN2C(=O)c3ccccc3C12c1ccccc1` (centres undefined): the activity change, positive = activation came out at 30.6%.

Take `CN1c2ccsc2C(O)=C(C(=S)Nc2ccc(F)c(Cl)c2)S1(=O)=O`: the “activity change, positive = activation” value is inactive: -43.3%.

On to `CC(/C=C/c1ccc(OCc2ccccc2)cc1)=N\O`, for which the Potency is active: 11.2 µM.

For the molecule `Cc1cccc2cc(CN(Cc3ccco3)C(=O)NC3CCCCC3)c(=O)[nH]c12`, the “activity change, positive = activation” value was inactive: -30.4%.

With `O=C(CN(c1ccc(F)cc1)S(=O)(=O)c1ccc2c(c1)OCCO2)NCc1ccccn1`, the activity change, positive = activation was found to be 35.3%.

With `Cc1cc(C)c2oc(C(=O)Nc3c(C(=O)c4ccc(F)cc4)oc4ccccc34)cc(=O)c2c1`, the activity change, positive = activation stood at 49.5%.

For `Cc1ccc(S(=O)(=O)NC(=O)COc2ccccc2C(N)=O)cc1`, the activity change, positive = activation was 47.7%.

For the molecule `O=C(NCC1COc2ccccc2O1)c1ccc(Cl)cc1` (centres undefined), the Potency was active: 14.1 µM.

For `Cc1cc(NC(=O)COC(=O)c2oc3c(ccc4ccccc43)c2C)no1`, the activity change, positive = activation was found to be 31.4%.

Consider `NC(=O)Cc1nc(-c2ccc([N+](=O)[O-])cc2)cs1`, for which the “activity change, positive = activation” value was inactive: -31.9%.

For the molecule `Cc1nnc(SCCN2C(=O)c3ccccc3C2=O)[nH]c1=O`, the activity change, positive = activation is 38.5%.

Turning to `COc1ccc2cc3c(N)nn(C(=O)C4CCC(C(C)(C)C)CC4)c3nc2c1` (centres undefined), the “activity change, positive = activation” value was inactive: -37.4%.

As to `CN(C(=S)NCCN1CCOCC1)C(c1ccccc1)c1ccccc1`, the “activity change, positive = activation” value was inactive: -31.5%.

With `CCSc1nnc(NC(=O)c2ccc(C)cc2)s1`, the Potency was active: 14.1 µM.

Take `O=C(COC(=O)/C=C/c1cccs1)NC1CC1`: the activity change, positive = activation came out at 37%.

As for `CCOc1ccc(C(=O)CCc2nc3ccccc3s2)cc1`, the activity change, positive = activation is -31.7%.

In the case of `Clc1ccc(-c2ccnc(Oc3cc(Cl)ccc3Cl)n2)cc1`, the activity change, positive = activation was -33.5%.

As for `CC(C)(C)c1nc2scc(-c3cccs3)c2c(=O)o1`, the activity change, positive = activation came to 43%.

`O=C1CC(/C=C/c2ccc(Cl)cc2)=Nc2ccccc2N1`: the activity change, positive = activation stood at 93.1%.

Take `CC(C)Oc1ccc(C2c3c(oc4ccccc4c3=O)C(=O)N2CCCN2CCOCC2)cc1` (centres undefined): the activity change, positive = activation turned out to be 35.9%.

`O=C(O)c1ccc(/C=N/NC(=O)c2cc(-c3cccs3)nc3ccccc23)cc1`: the “activity change, positive = activation” value was inactive: 4.02%.

Take `CC(CN1CCOCC1)OC(=O)c1ccccc1Br` (centres undefined): the activity change, positive = activation was -3.63%.

As for `Fc1ccc(Nc2ccnc(Nc3ccc(F)cc3)n2)cc1`, the activity change, positive = activation worked out at 75.4%.

As to `Cn1c(CN2CCCCC2)nc2cc(NC(=O)c3cccc(Br)c3)ccc21`, the Potency result is “inactive”.

For `CC(C)(C)c1csc(NC(=O)c2cccs2)n1`, the activity change, positive = activation was 47.8%.

`Cc1cccc(C)c1OCC(O)CN1CCC(CN2C(=O)c3cccc4cccc(c34)C2=O)CC1` (centres undefined): the activity change, positive = activation is -70.9%.

Regarding `COc1ccc(O)c(C(=O)CC(=O)c2ccccc2)c1`, the Potency is active: 1.78 µM.

As to `O=C(Nc1ccc(N2CCOCC2)cc1)Nc1cnsn1`, the Potency was active: 12.6 µM.

`COC(=O)c1c(C)[nH]c(C(=O)CSc2ccc(Cl)cc2)c1C`: the Potency is active: 11.2 µM.

Regarding `O=c1c2cc(-c3ccccc3)sc2nc2n1CCC2`, the Potency is active: 3.16 µM.

For `CN(C)S(=O)(=O)c1cccc(C(=O)NCC2CCCO2)c1` (centres undefined), the activity change, positive = activation was 58.8%.

With `Cc1c(CCO)c(=O)n(-c2ccccc2)n1S(=O)(=O)c1ccc([N+](=O)[O-])cc1`, the activity change, positive = activation is 32.1%.

As to `O=C(/C=C/c1ccccc1)Nc1scc(-c2ccccc2)c1C(=O)O`, the Potency was active: 11.2 µM.

Regarding `COc1ccccc1-c1ccc(SCc2cccc(C)c2)nn1`, the “activity change, positive = activation” value is inactive: -58.3%.

On to `Cc1cc(N/N=C/c2ccncc2)nc2ccccc12`, for which the Potency was active: 14.1 µM.

On to `CC(C)n1cnc2c(NCc3ccccc3)nc(NCCO)nc21`, for which the activity change, positive = activation amounted to 35.4%.

As for `OC(COCc1ccc(Cl)cc1)CN1CCN(CC(O)COCc2ccc(Cl)cc2)CC1` (centres undefined), the “activity change, positive = activation” value was inactive: -50.6%.
